Data taken from PubChem BioAssay AID504834 (National Center for Advancing Translational Sciences (NCATS), 2011).
Out of some 320,000 compounds screened, about 22,000 (6.9%) were called active. The inconclusive results got no clear call from the source; some entries with a clear call stand among them for comparison. Calls come from the whole dose curve; as a rule, active = well fitted inhibition curve with a large enough effect; inconclusive = small, poorly fitted or top-dose-only effect, or another doubt; inactive = no such curve, though single readings can be large or run the other way. Where the call is inconclusive, the potency comes from a doubtful curve fit.

Experiment: Primary qHTS for delayed death inhibitors of the malarial parasite plastid, 96 hour incubation
Conditions: P. falciparum luciferase reporter growth; series mostly up to 28.7 µM; activity change, negative = inhibition: at the top concentration
Summary of the method: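 Delayed-death screen, second-generation endpoint: infected erythrocytes, 2% hematocrit, 0.05% parasitemia final; 96 hours at 37 C, 5% CO2; luciferase detection reagent; luminescence decrease equals reduced growth.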
% is set by controls: 0 for no effect and ±100 for the full control effect; potency is the fitted concentration of half-maximal effect.

SMILES | activity change, negative = inhibition | Potency
Cc1c(C)[n+](=O)c2c(n1[O-])CCC2 | inactive: 1.3% | 
CCOC(=O)c1c(C)c(C)n(Cc2ccc(OC)c(OC)c2)c1C |  | inconclusive: 6.57 µM [inhibitor, partial curve, poor fit]
COc1ccc(S(=O)(=O)N2CCC(C(=O)N[C@H](C(=O)NCc3ccncc3)C(C)C)CC2)cc1 |  | inconclusive: 13.1 µM [inhibitor, single point]
COc1ccc(N2C(=O)CC(n3cnc4ccccc43)C2=O)cc1 (stereo not drawn) |  | inconclusive: 13.1 µM [inhibitor, single point]
Cc1ccccc1N=C(NOCc1ccc(Cl)cc1Cl)c1nonc1N |  | active: 11.7 µM
COC(=O)c1nn(-c2ccc(OC)cc2)c(=O)c2c(N)sc(C)c12 |  | inconclusive: 9.28 µM [inhibitor, single point]
CCOC(=O)C(=O)Nc1ccc(Oc2ccccc2)cc1 | inactive: 11.6% | 
COc1cc(NC(=O)c2cc([N+](=O)[O-])ccc2NC(=O)CNC2CCCCC2)cc(OC)c1 | inactive: 11.7% | 
C/C=C/C(=O)Nc1nnc(C2CCCCC2)s1 |  | inconclusive: 7.38 µM [inhibitor, partial curve, poor fit]
Cc1cccc(CS(=O)(=O)Cc2ccc(C(=O)NCCN3CCCCC3C)o2)c1 (stereo not drawn) | inactive: 19.4% | 
CC1CCCN(C(=O)C2CCN(Cc3ccc4c(c3)OCO4)CC2)C1 (stereo not drawn) |  | inconclusive: 10.4 µM [inhibitor, single point]
Cc1[nH]nc2nc3c(c(OC(=O)c4ccccc4)c12)c(=O)n(C)c(=O)n3C |  | inconclusive: 18.5 µM [inhibitor, single point]
O=c1nc(-c2ccccc2)n(-c2ccc(Cl)cc2)[nH]1 | inactive: 26.2% | 
COc1cccc(CNC(=O)CCC(=O)N2CCSc3ccccc32)c1OC |  | inconclusive: 18.5 µM [inhibitor, single point]
O=C(NCCc1c[nH]c2ccccc12)C(=O)NCC1OCCCN1S(=O)(=O)c1cc(F)ccc1F (stereo not drawn) |  | active: 3.29 µM
Cc1ccc(S(=O)(=O)N(C)CC(=O)O/N=C(\N)c2ccccn2)cc1 |  | inconclusive: 0.0033 µM [inhibitor, full curve, poor fit]
COc1ccc(NC(=O)c2ccco2)cc1NC(=O)c1cccc(OC(C)C)c1 | inactive: -5.84% | 
OC1(c2ccc(F)cc2)CCN(Cc2nnnn2Cc2cccs2)CC1 | inactive: 25.4% | 
Cc1ccc2nc(NC(=O)CN3CCN(c4ccccn4)CC3)sc2c1 | inactive: 53.1% | 
Cc1c(C(=O)NC2CCOC2)oc2c(F)cccc12 (stereo not drawn) |  | inconclusive: 0.37 µM [inhibitor, partial curve, poor fit]
CNc1ccccc1C(C)(C)c1cc(-c2cccc([N+](=O)[O-])c2)no1 |  | inconclusive: 18.5 µM [inhibitor, single point]
CCC1C(C)=NN=C(c2ccc(OC)c(OC)c2)c2cc(OC)c(OC)cc21 (stereo not drawn) |  | inconclusive: 13.5 µM [inhibitor, single point]
Cc1[nH]c2ccccc2c(=O)c1CN1CCCCCC1 |  | inconclusive: 14.7 µM [inhibitor, single point]

4 entries from above, reformatted.
Cc1ccc(S(=O)(=O)N(C)CC(=O)O/N=C(\N)c2ccccn2)cc1
  Potency: inconclusive: 0.0033 µM [inhibitor, full curve, poor fit]
COc1ccc(NC(=O)c2ccco2)cc1NC(=O)c1cccc(OC(C)C)c1
  activity change, negative = inhibition: inactive: -5.84%
OC1(c2ccc(F)cc2)CCN(Cc2nnnn2Cc2cccs2)CC1
  activity change, negative = inhibition: inactive: 25.4%
Cc1ccc2nc(NC(=O)CN3CCN(c4ccccn4)CC3)sc2c1
  activity change, negative = inhibition: inactive: 53.1%

Remaining list, next part.

SMILES | activity change, negative = inhibition | Potency
O=C(NC1CCC(O)CC1)c1ccccc1OCc1ccc(F)cc1 (stereo not drawn) |  | inconclusive: 18.5 µM [inhibitor, partial curve, poor fit]
CC(C)c1nc2cc(C(=O)N3CCN(c4cnccn4)CC3)ccc2o1 |  | active: 11.7 µM
O=C(c1noc2c1CCCCC2)N1CCOCC1 | inactive: 30.9% | 
CN1CCN(c2c(/C=N/O)c3ccccc3n2C)CC1 | inactive: 21.7% | 
O=C(CSc1ccccc1)NC1CCCCCC1 |  | inconclusive: 3.7 µM [inhibitor, partial curve]
NC(=S)N/N=C1\CCOc2ccc(F)cc21 |  | inconclusive: 4.65 µM [inhibitor, partial curve, poor fit]
O=S(=O)(c1cccc(S(=O)(=O)N2CCC(N3CCCCC3)CC2)c1)N1CCOCC1 |  | inconclusive: 13.1 µM [inhibitor, single point]
O=C1CCCc2nc(N3CCN(C(c4ccccc4)c4ccccc4)CC3)ncc21 |  | inconclusive: 0.928 µM [inhibitor, partial curve, poor fit]
Cc1ccsc1/C=N/n1c(-c2cc(-c3ccccc3)n[nH]2)n[nH]c1=S |  | inconclusive: 6.57 µM [inhibitor, partial curve, poor fit]
CCOc1ccccc1NC(=O)CCCCCN1C(=O)[C@@H]2Cc3ccccc3CN2C1=O |  | inconclusive: 9.28 µM [inhibitor, single point]
O=C(OCC(=O)N1CCN(C(=O)c2ccco2)CC1)c1sc2ccccc2c1Cl |  | inconclusive: 4.15 µM [inhibitor, single point]
CCN1CCN(C(=O)CN(c2cc(OC)ccc2OC)S(C)(=O)=O)CC1 |  | inconclusive: 10.4 µM [inhibitor, partial curve, poor fit]
CC1(C)CC(=O)N(CC(=O)NC2CCCC2)c2ccccc2S1(=O)=O |  | inconclusive: 9.28 µM [inhibitor, single point]
CCc1nn(CC(=O)NCCN2CCN(C)CC2)c(=O)c2cc3occc3n12 |  | inconclusive: 11.7 µM [inhibitor, single point]
Cc1cc(C(=O)CN2C(=O)NC3(CCCc4sccc43)C2=O)c(C)n1-c1ccccc1 (stereo not drawn) |  | inconclusive: 13.1 µM [inhibitor, single point]
CC1CCCN(CC(O)COc2ccc(S(=O)(=O)N3CCCC3)cc2[N+](=O)[O-])C1 (stereo not drawn) |  | inconclusive: 5.22 µM [inhibitor, partial curve]
Cc1ccc(C2=Nc3ccccc3N(C(=O)c3ccccc3)C(C)C2)cc1 (stereo not drawn) |  | active: 11.7 µM
O=C(Nc1nc2c(ccc3ccccc32)s1)c1ccco1 |  | inconclusive: 16.5 µM [inhibitor, single point]
O=C(NC1CCCCC1)N(CCN1CCOCC1)Cc1cc2cc3c(cc2[nH]c1=O)OCCO3 |  | inconclusive: 11.7 µM [inhibitor, single point]
CCOc1ccc(N2CC(C(=O)NCCc3ccc(S(N)(=O)=O)cc3)CC2=O)cc1 (stereo not drawn) | inactive: 47.7% | 
COC(=O)CNC(=O)c1cc(-c2ccncc2)nc2ccc(C)cc12 | inactive: -28.4% | 
COc1ccc(CCNC(=O)C2CCCN(S(=O)(=O)c3cnc[nH]3)C2)cc1OC (stereo not drawn) |  | active: 13.1 µM
C=CCN(CC=C)C(=O)C1CCN(S(=O)(=O)c2ccc(N3CCCC3=O)cc2)CC1 |  | active: 7.38 µM

SMILES | activity change, negative = inhibition | Potency
O=[N+]([O-])c1cccc(NC(=S)N2CCCC2)c1 |  | inconclusive: 1.85 µM [inhibitor, full curve]
CCCCN(C)CCCNC(=O)CN1N=C(c2ccc(Cl)cc2)CCC1=O |  | inconclusive: 18.5 µM [inhibitor, partial curve, poor fit]
Cc1cc(C)c2c(=O)n(CC(=O)NCCCN3CCOCC3)sc2n1 |  | inconclusive: 1.04 µM [inhibitor, partial curve, poor fit]
Cn1c(CO)cnc1SCc1c(Cl)cccc1Cl |  | inconclusive: 0.0033 µM [inhibitor, full curve, poor fit]
CCc1cccc(OCC(=O)Nc2ccc(S(=O)(=O)N3CCCC3)cc2)c1 |  | inconclusive: 11.7 µM [inhibitor, single point]
O=C(CN1C(=O)NC2(CCCCC2)C1=O)NC1CCCc2ccccc21 (stereo not drawn) |  | inconclusive: 10.4 µM [inhibitor, single point]
CCCOc1ccc(CC(CC(=O)O)(C(=O)O)C(=O)O)cc1 |  | inconclusive: 13.1 µM [inhibitor, single point]
Cn1c(=O)c2c(-c3ccc(OC(F)F)cc3)cc(-c3ccccc3)nc2n(C)c1=O |  | inconclusive: 1.85 µM [inhibitor, full curve]
COc1ccc(NC(=O)CCNS(=O)(=O)c2cccc3nonc23)c(OC)c1 | inactive: -24.5% | 
C/C(=N\NC(=O)c1nnn(-c2nonc2N)c1-c1ccc2c(c1)OCO2)c1cccs1 |  | active: 11.7 µM
CCC(=O)NC(=S)Nc1ccc(S(=O)(=O)NC2CCCCC2)cc1 |  | inconclusive: 10.4 µM [inhibitor, single point]
CCCOc1ccc(/C(O)=C2/C(=O)C(=O)N(CCN(C)C)C2c2ccco2)cc1 (stereo not drawn) |  | inconclusive: 11.7 µM [inhibitor, single point]
Cc1cc(C)cc(NC(=O)CN2CCc3cc4c(cc3C2C)OCCCO4)c1 (stereo not drawn) |  | inconclusive: 11.7 µM [inhibitor, single point]
COc1ccc(C(CC(=O)N2CCCC(C)C2)c2c(OC)cc(OC)c3c(-c4ccccc4)cc(=O)oc23)cc1 (stereo not drawn) |  | active: 11.7 µM
Cc1ccc2nc(/C(C#N)=C/c3ccccc3C(=O)O)[nH]c2c1 |  | inconclusive: 10.4 µM [inhibitor, partial curve, poor fit]
CCCCNC(=S)N(CCCN(C)C)Cc1cc2cc3c(cc2[nH]c1=O)OCO3 |  | inconclusive: 16.5 µM [inhibitor, single point]
CCN1CCCC1CNC(=O)c1c(O)c2c([nH]c1=O)CCCC2 (stereo not drawn) |  | inconclusive: 4.15 µM [inhibitor, partial curve, poor fit]
O=C(CSc1nc2ccccc2[nH]1)NC(=O)NCc1ccco1 |  | inconclusive: 18.5 µM [inhibitor, single point]
O=C(COc1ccccc1Cl)Nc1ccc(CN2CCOCC2)cc1 | inactive: 50.5% | 
Cn1ccc(NC(=O)Nc2ccc(Cl)cc2Cl)n1 |  | inconclusive: 14.7 µM [inhibitor, partial curve, poor fit]
CCOC(=O)Nc1ccc2c(c1)nc(CN1CCN(C(C)=O)CC1)n2C | inactive: 28.4% | 
COC(=O)c1ccc(CSCC(=O)Nc2ccccc2)cc1 |  | inconclusive: 11.7 µM [inhibitor, partial curve, poor fit]
